# In the supplement of paper PMC8728848:
# Some of the results follow.
# B1: Pbx1CASH domain (Cryptococcus neoformans) (protein)
# chain: MDETKPLWGNPRADGISLACKDSIVERNVVYDATDGAIVLFGSAGSTVKNNHVYARTRVILGGINLVDYEPWDGDYTNVKVHHNHLYALGRYFKVGIVIGPASWSDDTESVVHSASVTDNEFSGGYWGYGIVVASAKNFEVLRNKVIWDGEQGVARFSGVPGS
# How the values were obtained:
# Experiment in all cases: glycan array binding signal (z-score within array); higher = stronger binding
# Settings in all cases: glycan notation: IUPAC condensed, linker removed
# Gal3S(b1-4)Glc6S = target: Gal3S(b1-4)Glc6S
# Outline: (§1)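 The binding signal is a Z-score computed within each array and averaged over linkers. Arrays of the same protein sequence at different concentrations or buffers were also averaged together. Data originate from 3228 arrays in the Consortium for Functional Glycomics database, kept only where the protein sequence was available.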
# Gal3S(b1-4)GlcNAc = target: Gal3S(b1-4)GlcNAc
# Outline: as §1
# [1] = target: Gal3S(b1-4)[Fuc(a1-3)]Glc6S
# Outline: as §1
# [2] = target: Gal3S(b1-4)[Fuc(a1-3)]GlcNAc
# Outline: as §1
# [3] = target: Gal3S(b1-4)[Fuc(a1-3)]GlcNAc6S
# Outline: as §1
# Gal3S4S(b1-4)GlcNAc = target: Gal3S4S(b1-4)GlcNAc
# Outline: as §1
# Gal3S6S(b1-4)GlcNAc = target: Gal3S6S(b1-4)GlcNAc
# Outline: as §1
# Gal3S6S(b1-4)GlcNAc6S = target: Gal3S6S(b1-4)GlcNAc6S
# Outline: as §1
# Gal4S(b1-4)GlcNAc = target: Gal4S(b1-4)GlcNAc
# Outline: as §1
# Gal4S6S(b1-4)GlcNAc = target: Gal4S6S(b1-4)GlcNAc
# Outline: as §1
# Gal6P(b1-4)GlcNAc = target: Gal6P(b1-4)GlcNAc
# Outline: as §1
# Gal6S(b1-3)GlcNAc = target: Gal6S(b1-3)GlcNAc
# Outline: as §1
# Gal6S(b1-3)GlcNAc6S = target: Gal6S(b1-3)GlcNAc6S
# Outline: as §1
# Gal6S(b1-4)Glc = target: Gal6S(b1-4)Glc
# Outline: as §1
# Gal6S(b1-4)Glc6S = target: Gal6S(b1-4)Glc6S
# Outline: as §1
# Gal6S(b1-4)GlcNAc = target: Gal6S(b1-4)GlcNAc
# Outline: as §1
# Gal6S(b1-4)GlcNAc6S = target: Gal6S(b1-4)GlcNAc6S
# Outline: as §1
# GalNAc(a1-3)Gal = target: GalNAc(a1-3)Gal
# Outline: as §1
# GalNAc(a1-3)GalNAc = target: GalNAc(a1-3)GalNAc
# Outline: as §1
# [4] = target: GalNAc(a1-3)GalNAc(a1-3)Gal(a1-4)Gal(b1-4)GlcNAc
# Outline: as §1
# [5] = target: GalNAc(a1-3)GalNAc(b1-3)Gal(a1-4)Gal(b1-4)Glc
# Outline: as §1
# GalNAc(b1-3)Gal = target: GalNAc(b1-3)Gal
# Outline: as §1
# [6] = target: GalNAc(b1-3)Gal(a1-4)Gal(b1-4)GlcNAc
# Outline: as §1
# [7] = target: GalNAc(b1-3)Gal(a1-4)Gal(b1-4)GlcNAc(b1-3)Gal(b1-4)Glc
# Outline: as §1
# [8] = target: GalNAc(b1-3)Gal(a1-6)Gal(b1-4)Glc
# Outline: as §1
# GalNAc(b1-3)GalNAc = target: GalNAc(b1-3)GalNAc
# Outline: as §1
# GalNAc(b1-3)GlcNAc = target: GalNAc(b1-3)GlcNAc
# Outline: as §1
# GalNAc(b1-4)Gal(b1-4)Glc = target: GalNAc(b1-4)Gal(b1-4)Glc
# Outline: as §1
# GalNAc(b1-4)GlcNAc = target: GalNAc(b1-4)GlcNAc
# Outline: as §1
# [9] = target: GalNAc(b1-4)GlcNAc(b1-2)Man
# Outline: as §1
# [10] = target: GalNAc(b1-4)GlcNAc(b1-2)Man(a1-3)[GalNAc(b1-4)GlcNAc(b1-2)Man(a1-6)]Man(b1-4)GlcNAc(b1-4)GlcNAc
# Outline: as §1
# [11] = target: GalNAc(b1-4)GlcNAc(b1-3)GalNAc(b1-4)GlcNAc
# Outline: as §1
# GalNAc(b1-4)GlcNAc6S = target: GalNAc(b1-4)GlcNAc6S
# Outline: as §1
# GalNAc(b1-6)GalNAc = target: GalNAc(b1-6)GalNAc
# Outline: as §1
# GalNAc3S(b1-4)GlcNAc = target: GalNAc3S(b1-4)GlcNAc
# Outline: as §1
# GalNAc3S(b1-4)GlcNAc3S = target: GalNAc3S(b1-4)GlcNAc3S
# Outline: as §1
# [12] = target: GalNAc3S(b1-4)[Fuc(a1-3)]GlcNAc
# Outline: as §1
# GalNAc4S6S(b1-4)GlcNAc = target: GalNAc4S6S(b1-4)GlcNAc
# Outline: as §1
# GalNAc6S(b1-4)GlcNAc = target: GalNAc6S(b1-4)GlcNAc
# Outline: as §1
# Glc(a1-4)Glc = target: Glc(a1-4)Glc
# Outline: as §1
# [13] = target: Glc(a1-4)Glc(a1-4)Glc(a1-4)Glc
# Outline: as §1
# Glc(a1-6)Glc(a1-6)Glc = target: Glc(a1-6)Glc(a1-6)Glc
# Outline: as §1
# [14] = target: Glc(a1-6)Glc(a1-6)Glc(a1-6)Glc
# Outline: as §1
# Glc(b1-4)Glc = target: Glc(b1-4)Glc
# Outline: as §1
# Glc(b1-6)Glc = target: Glc(b1-6)Glc
# Outline: as §1
binder,measurement,setting,value
B1,glycan array binding signal (z-score),Gal3S(b1-4)Glc6S,0.01
same,glycan array binding signal (z-score),Gal3S(b1-4)GlcNAc,-0.115
same,glycan array binding signal (z-score),[1],0.604
same,glycan array binding signal (z-score),[2],-0.504
same,glycan array binding signal (z-score),[3],0.19
same,glycan array binding signal (z-score),Gal3S4S(b1-4)GlcNAc,-0.228
same,glycan array binding signal (z-score),Gal3S6S(b1-4)GlcNAc,-0.224
same,glycan array binding signal (z-score),Gal3S6S(b1-4)GlcNAc6S,1.02
same,glycan array binding signal (z-score),Gal4S(b1-4)GlcNAc,-0.788
same,glycan array binding signal (z-score),Gal4S6S(b1-4)GlcNAc,-0.132
same,glycan array binding signal (z-score),Gal6P(b1-4)GlcNAc,-0.384
same,glycan array binding signal (z-score),Gal6S(b1-3)GlcNAc,-0.878
same,glycan array binding signal (z-score),Gal6S(b1-3)GlcNAc6S,-0.488
same,glycan array binding signal (z-score),Gal6S(b1-4)Glc,-0.195
same,glycan array binding signal (z-score),Gal6S(b1-4)Glc6S,0.884
same,glycan array binding signal (z-score),Gal6S(b1-4)GlcNAc,-0.404
same,glycan array binding signal (z-score),Gal6S(b1-4)GlcNAc6S,-0.284
same,glycan array binding signal (z-score),GalNAc(a1-3)Gal,0.032
same,glycan array binding signal (z-score),GalNAc(a1-3)GalNAc,-0.916
same,glycan array binding signal (z-score),[4],0.621
same,glycan array binding signal (z-score),[5],1.06
same,glycan array binding signal (z-score),GalNAc(b1-3)Gal,-0.556
same,glycan array binding signal (z-score),[6],0.058
same,glycan array binding signal (z-score),[7],-0.154
same,glycan array binding signal (z-score),[8],-0.333
same,glycan array binding signal (z-score),GalNAc(b1-3)GalNAc,-0.471
same,glycan array binding signal (z-score),GalNAc(b1-3)GlcNAc,-0.202
same,glycan array binding signal (z-score),GalNAc(b1-4)Gal(b1-4)Glc,1.53
same,glycan array binding signal (z-score),GalNAc(b1-4)GlcNAc,-0.736
same,glycan array binding signal (z-score),[9],-0.748
same,glycan array binding signal (z-score),[10],-0.309
same,glycan array binding signal (z-score),[11],0.515
same,glycan array binding signal (z-score),GalNAc(b1-4)GlcNAc6S,-0.586
same,glycan array binding signal (z-score),GalNAc(b1-6)GalNAc,-0.495
same,glycan array binding signal (z-score),GalNAc3S(b1-4)GlcNAc,-0.852
same,glycan array binding signal (z-score),GalNAc3S(b1-4)GlcNAc3S,0.07
same,glycan array binding signal (z-score),[12],-0.755
same,glycan array binding signal (z-score),GalNAc4S6S(b1-4)GlcNAc,-0.562
same,glycan array binding signal (z-score),GalNAc6S(b1-4)GlcNAc,0.021
same,glycan array binding signal (z-score),Glc(a1-4)Glc,-0.667
same,glycan array binding signal (z-score),[13],-0.661
same,glycan array binding signal (z-score),Glc(a1-6)Glc(a1-6)Glc,-0.614
same,glycan array binding signal (z-score),[14],0.583
same,glycan array binding signal (z-score),Glc(b1-4)Glc,0.13
same,glycan array binding signal (z-score),Glc(b1-6)Glc,-0.309

# 3 records picked at random from those above, as already listed:
binder,measurement,setting,value
B1,glycan array binding signal (z-score),GalNAc(b1-3)GlcNAc,-0.202
same,glycan array binding signal (z-score),Gal6S(b1-4)Glc6S,0.884
same,glycan array binding signal (z-score),GalNAc4S6S(b1-4)GlcNAc,-0.562
